Data published in PMC2773007.
These are yes or no findings as the source states them, for the method shown. In cells and extracts the contact can be indirect. Some entries that bind do so weakly or less than the wild type. Tags and fused reporters may be left off the sequences shown.

The chains behind the UniProt entries cited, without tags or fusion partners.
UniProt P62993: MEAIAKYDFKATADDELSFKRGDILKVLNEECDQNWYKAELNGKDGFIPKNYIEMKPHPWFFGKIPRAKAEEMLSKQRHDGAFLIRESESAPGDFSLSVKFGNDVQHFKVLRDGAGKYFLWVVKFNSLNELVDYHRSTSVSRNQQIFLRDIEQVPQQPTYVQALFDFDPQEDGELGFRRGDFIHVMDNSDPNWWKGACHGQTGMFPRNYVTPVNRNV

Molecular target: T1, Dvl2 PRR1 mutant (Δ111–122), FLAG-tagged (human) (UniProt O14641)
T1 sequence: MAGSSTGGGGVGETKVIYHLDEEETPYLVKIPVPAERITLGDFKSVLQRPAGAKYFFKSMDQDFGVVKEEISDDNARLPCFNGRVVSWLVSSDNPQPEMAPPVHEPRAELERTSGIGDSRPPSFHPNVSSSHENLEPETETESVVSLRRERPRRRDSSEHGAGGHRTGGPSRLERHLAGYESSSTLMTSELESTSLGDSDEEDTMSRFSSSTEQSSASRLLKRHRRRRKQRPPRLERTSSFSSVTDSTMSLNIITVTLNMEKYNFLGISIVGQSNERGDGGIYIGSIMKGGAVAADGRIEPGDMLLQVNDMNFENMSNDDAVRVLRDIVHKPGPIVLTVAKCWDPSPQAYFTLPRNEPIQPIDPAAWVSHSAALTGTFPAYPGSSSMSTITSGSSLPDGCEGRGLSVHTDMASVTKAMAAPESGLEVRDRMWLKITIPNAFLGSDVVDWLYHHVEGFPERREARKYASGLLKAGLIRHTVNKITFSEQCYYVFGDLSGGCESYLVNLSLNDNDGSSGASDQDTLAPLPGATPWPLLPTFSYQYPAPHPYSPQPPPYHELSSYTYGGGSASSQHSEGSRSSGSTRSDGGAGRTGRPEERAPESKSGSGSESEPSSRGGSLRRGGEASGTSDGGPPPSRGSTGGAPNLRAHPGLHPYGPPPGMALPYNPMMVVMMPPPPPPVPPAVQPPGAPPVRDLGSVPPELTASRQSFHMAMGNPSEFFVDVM
Test: co-IP; FLAG-Dvl2 (WT or PRR mutant) and HA-Grb2 co-expressed in HEK293; RIPA lysate; anti-FLAG immunoprecipitation overnight at 4°C, protein-G sepharose 2 hrs at RT; blot with anti-HA

For “HA-tagged Grb2 (human growth factor receptor-bound-2) (from UniProt P62993 1-217)”, the binding was “binds”.
